From PubChem BioAssay AID1347076 (National Center for Advancing Translational Sciences (NCATS), 2019)
Where “and” joins values, the source holds several entries; their conditions need not be identical. Equal values may be shown once. The whole screen tested about 400,000 compounds, of which about 13,000 (3.2%) were called active. The inconclusive results got no clear call from the source; some entries with a clear call stand among them for comparison. Calls come from the whole dose curve; as a rule, active = well fitted cell-killing curve with a large enough effect; inconclusive = small, poorly fitted or top-dose-only effect, or effect the other way; inactive = flat fitted curve, though single readings scatter. Potencies of inconclusive entries are doubtful fits and often do not repeat.

assay: qHTS assay for MDR1-selective chemotherapeutics: Primary screen using the drug-selected MDR subline cells KB-V1; details: KB-V1 MDR cells viability, CellTiter-Glo, 72 h; series mostly up to 46.1 µM; note: nearly all actives have a fitted effect of over 60% in size
Procedure, shortened: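 Cytotoxicity via CellTiter-Glo luminescence after 72 h compound exposure at 37 degrees C. Cells: drug-selected KB-V1 line, DMEM phenol-red free plus 10% FBS. Compounds tested at multiple concentrations; normalized data fitted to concentration-effect curves.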
Potency is the fitted concentration of half-maximal effect.

| SMILES | Potency |
| --- | --- |
| CN(C)C(CNC(=O)c1ccc(C2SCCS2)cc1)c1ccccc1 (centres undefined) | inconclusive: 16.4 µM [cytotoxic, partial curve, poor fit] |
| CC1(C)CC[C@@]23CC[C@]4(C)[C@@](OC2=O)(C3C1)[C@H]1O[C@H]1C1[C@@]2(C)CC[C@H](O)C(C)(C)C2CC[C@]14C (some centres undefined) | inactive |
| Brc1ccc2c(c1)OCCOCCOCCOCCOCCOCCO2 | active: 6.51 µM |
| Nc1cc(=O)nc(SCC(=O)N2CCN(c3ccccc3)CC2)n1-c1ccc(F)cc1 | inconclusive: 20.6 µM [cytotoxic, single point] |
| CN(Cc1cccnc1)C(=O)CNC(=O)COc1ccccc1 | inactive |
| Cc1nc(SCC(=O)N2CCc3ccccc3C2)c2c(C)c(C)sc2n1 | active: 18.4 µM |
| CCOC(=O)c1nc(N2CCN(c3ccc(F)cc3)CC2)c2c(C)noc2n1 | inactive |
| COc1ccc2cc(-c3ccccc3)ncc2c1 | inactive |
| Cc1cc(Cl)ccc1OC(C)C(=O)NCCCn1ccnc1 (centres undefined) | inconclusive: 14.6 µM [cytotoxic, single point] |
| CCCC(=O)N(c1ccc2oc(C)c(C(C)=O)c2c1)S(=O)(=O)c1ccc(C)cc1 | inconclusive: 16.4 µM [cytotoxic, partial curve, poor fit] |
| O=C(CSCC(=O)N1CCCCC1)Nc1nc(-c2ccccc2)c(-c2ccccc2)s1 | inconclusive: 23.1 µM [cytotoxic, partial curve, poor fit] |
| COc1ccccc1NC(=O)CN1CCN(c2ccccc2)CC1 | inactive |
| O=C(NCc1ccccc1Cl)NCc1ccccc1Cl | inactive |
| Cn1cc([N+](=O)[O-])c(C(=O)Nc2ccn(C34CC5CC(CC(C5)C3)C4)n2)n1 | active: 14.6 µM |
| Cc1ccccc1NC(=O)c1csc2c1CCCC2 | inconclusive: 23.1 µM [cytotoxic, single point] |
| CCN(CC(=O)Nc1ccc2c(c1)OCCO2)Cc1cc(=O)oc2c(C)c(C)ccc12 | active: 4.11 µM |
| Cc1cccc(NC(=O)c2sc3nc(-c4ccc(F)cc4)cn3c2C)n1 | inconclusive: 4.61 µM [cytotoxic, full curve, poor fit] |
| CC(=O)NNC(=S)NC(=O)c1cccc([N+](=O)[O-])c1 | inconclusive: 18.4 µM [cytotoxic, partial curve] |
| COc1ccc(CCNC(=O)CSc2nc(N)c(C#N)c(-c3cccs3)c2C#N)cc1OC | inconclusive: 4.61 µM [cytotoxic, partial curve] |
| O=C(CCl)N1CCCC1c1ccc2c(c1)OCCO2 (centres undefined) | inconclusive: 29.1 µM [cytotoxic, single point] |
| Cc1nc(-c2ccc(Cl)cc2)sc1C1(C)CC(c2cccc(Cl)c2)=NO1 (centres undefined) | inconclusive: 4.11 µM [rising, full curve, poor fit] |
| COc1cccc(N2C(=O)CSC23C(=O)N(Cc2ccccc2)c2ccccc23)c1 (centres undefined) | inconclusive: 8.2 µM [cytotoxic, partial curve] |

| SMILES | Potency |
| --- | --- |
| CCN(CCO)C(=O)C12CCC(C)(C(=O)C1)C2(C)C (centres undefined) | inconclusive: 20.6 µM [cytotoxic, single point] |
| N#CC(C#N)=C(Nc1ccc(F)cc1)SCc1cccc(F)c1 | inconclusive: 23.1 µM [cytotoxic, single point] |
| CCC(C)(C)NC(=O)C(c1ccccc1Cl)N(C(=O)CCC(=O)Nc1cc(C)on1)C1CC1 (centres undefined) | inconclusive: 1.3 µM [cytotoxic, full curve] |
| O=C(CSc1ncccc1-c1nc2ccccc2[nH]1)N1CCc2ccccc21 | inconclusive: 4.11 µM [cytotoxic, full curve] |
| Cn1nc(C(C)(C)C)cc1C(=O)NNC(=O)c1ccc(C(F)(F)F)cc1 | inconclusive: 7.31 µM [cytotoxic, partial curve] |
| CCn1nc(C)c(CN2CCC(C(=O)Nc3cccc(-c4cccc(Cl)c4)c3)CC2)c1C | inactive |
| COc1cc(/C=C2\CCC/C(=C\c3ccc(O)c(OC)c3)C2=O)ccc1O | inconclusive: 29.1 µM [cytotoxic, single point] and inconclusive: 32.6 µM [cytotoxic, single point] |
| CCN(C(=O)CN1C(=O)NC2(CCc3ccccc32)C1=O)C1CCCCC1 (centres undefined) | inactive |
| CC(=O)Nc1ccc2c(c1)C(=O)c1ccc(Cl)cc1-2 | inconclusive: 29.1 µM [cytotoxic, single point] |
| CC(C)C(c1nnnn1Cc1cccs1)N1CCN(C(=O)c2ccco2)CC1 (centres undefined) | inconclusive: 13 µM [cytotoxic, partial curve, poor fit] |
| Cc1ccc(C(=O)N/C(=C\c2ccco2)C(=O)NC2CCS(=O)(=O)C2)cc1 (centres undefined) | inconclusive: 23.1 µM [rising, single point] |
| CC(C(=O)NCC1CCCCC1)N1CCc2ccccc2C1 (centres undefined) | inconclusive: 14.6 µM [cytotoxic, partial curve] |
| COc1cccc(OC)c1C(=O)Nc1cccnc1 | inactive |
| CCN(Cc1ccccc1)S(=O)(=O)c1ccc(OC)c2ncccc12 | inconclusive: 2.06 µM [cytotoxic, full curve, poor fit] |
| O=C(Nc1ccc(Cl)cc1)N[C@H]1CC[C@H](CCn2cc(-c3ccccc3F)nn2)O[C@@H]1CO | inconclusive: 16.4 µM [cytotoxic, single point] |
| CCn1c(=O)n(CC)c2cc(S(=O)(=O)N3CCC(c4ccccc4)CC3)ccc21 | active: 23.1 µM |
| CCc1ccc(NC(=O)C(=O)NCC(c2ccc3c(c2)OCO3)N2CCOCC2)cc1 (centres undefined) | inactive |
| COc1ccc(C2=NN(C(=O)c3cccs3)C(c3ccccc3O)C2)cc1 (centres undefined) | inactive |
| C=CCOc1ccc2ccccc2c1CNCCCN1CCOCC1 | active: 16.4 µM |
| N#CC1=C2SCC(O)(c3ccccc3)N2C(=O)CC1c1ccccc1 (centres undefined) | active: 1.84 µM |
| CCCOP(=O)(c1ccc(N(C)C)cc1)C(O)c1ccc(Cl)cc1Cl (centres undefined) | inconclusive: 29.1 µM [cytotoxic, single point] |
| CSc1ccccc1OCc1cc(C(=O)N2CCN(c3ccccc3)CC2C)no1 (centres undefined) | inconclusive: 10.3 µM [cytotoxic, partial curve] |

Taken from the listing, two compounds:

| SMILES | Potency |
| --- | --- |
| CCN(C(=O)CN1C(=O)NC2(CCc3ccccc32)C1=O)C1CCCCC1 (centres undefined) | inactive |
| CC(=O)Nc1ccc2c(c1)C(=O)c1ccc(Cl)cc1-2 | inconclusive: 29.1 µM [cytotoxic, single point] |
